In patent US11078246B2, “Peptides binding to Bfl-1” (Dana-Farber Cancer Institute, Inc., priority 2015, dated 2021):
At least one peptide structure holds a part that was inferred or is arguable (an end, a ring closure or a residue). Starred links: 1 amine or outer side, 2 acyl side, 3 side chain; linkers in the order of their positions; H or OH if unused. Positions of bridges follow the written chain, without caps; N, C: chain ends. Non-standard residues stand in square brackets, D forms with d. Residues, ends and D or L forms follow the SMILES beside them. *: point of attachment. Nip(3R) = O=C([C@@H]1CCCN([*:1])C1)[*:2]; S5 = C=CCCC[C@](C)(N)C(=O)O; Acryloyl = C=CC(=O)*

Protein sequences, listed by entry. Tags and fused reporters are not part of them. Lines headed by an entry give the natural chain unless they say otherwise; changes in a name come on top.
UniProt Q16548: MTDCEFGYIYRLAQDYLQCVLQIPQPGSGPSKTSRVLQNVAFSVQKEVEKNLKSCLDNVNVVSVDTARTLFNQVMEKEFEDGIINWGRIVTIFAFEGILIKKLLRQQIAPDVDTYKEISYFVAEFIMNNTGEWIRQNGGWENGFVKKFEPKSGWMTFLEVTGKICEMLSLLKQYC

Biological target: T1, tBID/HA-BFL-1ΔC C4S/C19S (Homo sapiens, UniProt Q16548, C19S/C4S)
T1 construct: cDNA encoding BFL-1ΔC (aa 1-153) was cloned into the pET19b expression vector; expressed in transfected cells; host or cells: 293T
T1 sequence (Q16548 1-153 C4S/C19S): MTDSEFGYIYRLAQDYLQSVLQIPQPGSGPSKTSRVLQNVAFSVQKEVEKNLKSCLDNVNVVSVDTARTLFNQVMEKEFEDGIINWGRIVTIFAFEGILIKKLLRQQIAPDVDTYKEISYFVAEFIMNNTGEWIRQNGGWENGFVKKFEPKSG
Test: Competition with tBID in 293T lysates (HA immunoprecipitation)
Assay type: binding
Conditions: 5 μM biotinylated peptide, 0.25 μM tBID, 6 h
Experimental: Protein concentration of the soluble fraction was measured using a BCA kit according to manufacturer's instructions (Thermo Scientific). […] After 24 h, cells were trypsinized, washed with PBS, lysed in 1% CHAPS buffer, and the supernatant collected for protein concentration determination by BCA kit. […] Cells were harvested and lysed as above, and incubated overnight with anti-HA agarose beads (Pierce). The beads were washed 3 times with lysis buffer, eluted by boiling in LDS buffer, and subjected to western analysis with HA and biotin antibodies. […] Biotin capture was accomplished by incubating the mixture with high-capacity SA agarose (Thermo Scientific) for 2 h at 4° C., followed by centrifugation and washing the pelleted beads with 3×1 mL lysis buffer.

In the case of `C=CC(=O)N1CCC[C@@H](C(=O)N[C@H](C(=O)N[C@@H](C)C(=O)N[C@@H](CCC(N)=O)C(=O)N[C@@H](CCC(=O)O)C(=O)N[C@@H](CC(C)C)C(=O)N[C@@H](CCCNC(=N)N)C(=O)N[C@@]2(C)CCCC=CCCC[C@@](C)(C(=O)N[C@@H](Cc3ccccc3)C(=O)N[C@@H](CC(N)=O)C(=O)N[C@@H](C)C(=O)N[C@@H](Cc3ccc(O)cc3)C(=O)N[C@@H](Cc3ccc(O)cc3)C(=O)N[C@@H](C)C(=O)N[C@@H](CCCNC(=N)N)C(=O)N[C@@H](CCCNC(=N)N)C(N)=O)NC(=O)[C@H](CC(=O)O)NC(=O)CNC(=O)[C@H]([C@@H](C)CC)NC2=O)[C@@H](C)CC)C1` [BIM SAHBA-3] (Acryloyl-[Nip(3R)]IAQELR[S5]IGD[S5]FNAYYARR-NH2; staple 8-12; N-terminus and C-terminus assumed), the “conversion of HA-BFL-1 to covalent adduct” value is reported as “complete protein conversion to the higher molecular weight species”.
